Measurements from publication PMC8611090.
Results are given in words; binding and its absence hold for the method and conditions named. Binding seen in cells or lysates may run through a third protein. Some entries that bind do so weakly or less than the wild type. For some of these results: Where a sequence is shown, tags or fusion partners need not be part of it.

By UniProt entry, the sequences of proteins in these tests, tags left out.
UniProt O88990: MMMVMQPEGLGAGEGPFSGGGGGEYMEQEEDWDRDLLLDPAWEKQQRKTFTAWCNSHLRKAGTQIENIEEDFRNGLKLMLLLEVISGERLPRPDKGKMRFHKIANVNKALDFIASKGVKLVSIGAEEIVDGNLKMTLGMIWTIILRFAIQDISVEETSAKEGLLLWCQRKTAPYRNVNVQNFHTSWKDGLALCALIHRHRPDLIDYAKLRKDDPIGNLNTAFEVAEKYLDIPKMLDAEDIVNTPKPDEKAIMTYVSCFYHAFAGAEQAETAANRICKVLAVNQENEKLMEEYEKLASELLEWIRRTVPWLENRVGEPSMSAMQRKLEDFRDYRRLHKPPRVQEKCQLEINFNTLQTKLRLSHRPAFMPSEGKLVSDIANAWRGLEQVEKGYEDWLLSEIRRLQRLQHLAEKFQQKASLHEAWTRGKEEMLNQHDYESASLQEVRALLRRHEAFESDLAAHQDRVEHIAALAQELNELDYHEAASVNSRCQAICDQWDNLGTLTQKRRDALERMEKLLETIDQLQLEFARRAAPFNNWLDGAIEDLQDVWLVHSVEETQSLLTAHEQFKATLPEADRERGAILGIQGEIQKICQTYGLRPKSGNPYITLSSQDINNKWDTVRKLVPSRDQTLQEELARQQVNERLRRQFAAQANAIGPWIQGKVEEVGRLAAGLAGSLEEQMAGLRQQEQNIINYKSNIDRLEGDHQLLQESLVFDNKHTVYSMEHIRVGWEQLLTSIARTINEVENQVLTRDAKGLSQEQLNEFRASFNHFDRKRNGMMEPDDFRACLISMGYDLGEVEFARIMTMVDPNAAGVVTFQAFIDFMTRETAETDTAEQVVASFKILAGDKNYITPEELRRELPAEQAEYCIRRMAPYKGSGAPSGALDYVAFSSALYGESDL
UniProt Q9CZW4: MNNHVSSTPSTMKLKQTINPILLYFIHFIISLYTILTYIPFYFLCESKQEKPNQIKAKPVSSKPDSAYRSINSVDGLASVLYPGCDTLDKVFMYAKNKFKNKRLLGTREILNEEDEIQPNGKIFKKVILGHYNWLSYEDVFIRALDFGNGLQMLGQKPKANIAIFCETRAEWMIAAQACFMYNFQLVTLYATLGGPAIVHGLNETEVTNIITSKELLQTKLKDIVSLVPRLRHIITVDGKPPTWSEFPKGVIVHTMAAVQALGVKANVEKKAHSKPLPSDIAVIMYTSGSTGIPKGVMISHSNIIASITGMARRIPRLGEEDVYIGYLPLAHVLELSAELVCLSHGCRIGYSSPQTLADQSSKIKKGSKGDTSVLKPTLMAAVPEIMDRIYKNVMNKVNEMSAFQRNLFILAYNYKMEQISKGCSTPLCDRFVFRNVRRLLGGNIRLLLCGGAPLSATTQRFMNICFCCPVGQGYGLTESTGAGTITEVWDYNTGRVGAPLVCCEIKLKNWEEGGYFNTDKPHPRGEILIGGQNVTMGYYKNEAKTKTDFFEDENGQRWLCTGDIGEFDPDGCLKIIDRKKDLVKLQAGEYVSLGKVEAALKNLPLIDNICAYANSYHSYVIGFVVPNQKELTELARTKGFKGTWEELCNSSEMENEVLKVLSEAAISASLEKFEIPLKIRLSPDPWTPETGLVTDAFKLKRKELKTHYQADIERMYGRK

Legend:
[1] = target: ACTN3 expressed from a tag vector (UniProt O88990); test: co-IP; co-immunoprecipitation using tag vectors in C2C12 cells (SI Appendix Fig. S3E, F)
[2] = target: ACTN3 (mouse (endogenous in C2C12)) (UniProt O88990); test: co-IP; co-immunoprecipitation in C2C12 cells (Fig. 4A); Protein A/G beads

| Molecule | binding [1] | binding [2] |
| --- | --- | --- |
| Acyl-CoA synthetase long chain family member 3 (ACSL3) (from UniProt Q9CZW4 1-720) |  | binds |
| lysophosphatidylcholine acyltransferase 1 (LPCAT1) (protein, UniProt Q3TFD2 1-534) MRLRGRGPRAAPSSSSGAGDARRLAPPGRNPFVHELRLSALQKAQVAFMTLTLFPIRLLFAAFMMLLAWPFALLASLGPPDKEPEQPLALWRKVVDFLLKAIMRTMWFAGGFHRVAVKGRQALPTEAAILTLAPHSSYFDAIPVTMTMSSIVMKAESRDIPIWGTLIRYIRPVFVSRSDQDSRRKTVEEIKRRAQSNGKWPQIMIFPEGTCTNRTCLITFKPGAFIPGVPVQPVVLRYPNKLDTITWTWQGPGALKILWLTLCQFQNQVEIEFLPVYCPSEEEKRNPALYASNVRRVMAKALGVSVTDYTFEDCQLALAEGQLRLPADTCLLEFARLVRGLGLKPENLEKDLDKYSESARMKRGEKIRLPEFAAYLEVPVSDALEDMFSLFDESGGGEIDLREYVVALSVVCRPSQTLATIQLAFKMYGSPEDGSIDEANLSCILKTALGVSELTVTDLFQAIDQEDKGRITFDDFCGFAEMYPDYAEDYLYPDQTHFDSCAQTPPAPTPNGFCIDFSPENSDFGRKNSCKKAD |  | binds |

Next, values leading:

| binding [1] | binding [2] | Molecule |
| --- | --- | --- |
| binds |  | ACSL3 expressed from a tag vector (from UniProt Q9CZW4 1-720) |
| binds |  | LPCAT1 expressed from a tag vector (protein, UniProt Q3TFD2 1-534) MRLRGRGPRAAPSSSSGAGDARRLAPPGRNPFVHELRLSALQKAQVAFMTLTLFPIRLLFAAFMMLLAWPFALLASLGPPDKEPEQPLALWRKVVDFLLKAIMRTMWFAGGFHRVAVKGRQALPTEAAILTLAPHSSYFDAIPVTMTMSSIVMKAESRDIPIWGTLIRYIRPVFVSRSDQDSRRKTVEEIKRRAQSNGKWPQIMIFPEGTCTNRTCLITFKPGAFIPGVPVQPVVLRYPNKLDTITWTWQGPGALKILWLTLCQFQNQVEIEFLPVYCPSEEEKRNPALYASNVRRVMAKALGVSVTDYTFEDCQLALAEGQLRLPADTCLLEFARLVRGLGLKPENLEKDLDKYSESARMKRGEKIRLPEFAAYLEVPVSDALEDMFSLFDESGGGEIDLREYVVALSVVCRPSQTLATIQLAFKMYGSPEDGSIDEANLSCILKTALGVSELTVTDLFQAIDQEDKGRITFDDFCGFAEMYPDYAEDYLYPDQTHFDSCAQTPPAPTPNGFCIDFSPENSDFGRKNSCKKAD |
